Results: US20190137505A1 (THE ARIZONA BOARD OF REGENTS ON BEHALF OF THE UNIVERSITY OF …, priority 2015, published 2019)

Tested on: HSA
[1] = T2D subjects taking metformin, mean (standard deviation), N 37

For `CN(C)C(=N)NC(=N)N.Cl` [Metformin, 1,1-dimethylbiguanide hydrochloride], which “change in MG modifications of HSA” value (T2D subjects taking metformin compared to non-metformin T2D subjects, p=0.0042) is on record?
Its value is “substantial and significant decreases”.

And the “change in glucosone modifications of HSA” value (T2D subjects taking metformin compared to non-metformin T2D subjects, p=0.0062)?
Its value is “substantial and significant decreases”.

And the “Log HbA1c” value (T2D subjects taking metformin, mean (standard deviation) are ranked HbA1c, N 35)?
The value was 78.46 (20.87)^1.

And the “HSA Modifications Glucosone” value [1]?
The value was 10.90 (2.26).

And the “HSA Modifications MG” value [1]?
The value was 11.04 (2.42).

And the “HSA Modifications Oxidative” value [1]?
Its value is 0.22 (1.88).
